Two molecules from article PMC10589240 can be followed below.

This test has as its target T1, SMAD4, endogenous (human (endogenous in HCT116, HEK293T and HepG2)), Q13485.
T1 chain: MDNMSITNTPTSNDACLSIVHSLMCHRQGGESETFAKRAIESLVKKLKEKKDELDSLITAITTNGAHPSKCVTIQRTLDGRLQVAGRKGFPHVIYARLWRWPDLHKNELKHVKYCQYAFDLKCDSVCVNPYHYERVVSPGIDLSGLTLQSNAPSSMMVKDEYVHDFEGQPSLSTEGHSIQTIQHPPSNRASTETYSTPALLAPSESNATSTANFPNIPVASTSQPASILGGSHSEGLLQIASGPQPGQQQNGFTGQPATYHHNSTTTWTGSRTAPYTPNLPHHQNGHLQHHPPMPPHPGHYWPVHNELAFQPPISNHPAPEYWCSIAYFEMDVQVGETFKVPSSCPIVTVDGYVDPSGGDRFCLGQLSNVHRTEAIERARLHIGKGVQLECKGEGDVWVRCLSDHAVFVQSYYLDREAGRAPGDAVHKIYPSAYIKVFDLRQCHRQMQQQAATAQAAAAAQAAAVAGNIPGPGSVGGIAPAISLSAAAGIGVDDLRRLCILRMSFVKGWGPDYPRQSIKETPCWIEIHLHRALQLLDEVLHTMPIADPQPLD
Put plainly: co-IP; IP of the SMAD4/R-SMAD complex from HepG2 cells stably expressing shNT or shTRIP12, treated with TGFβ; Western blot. The conditions noted are these: remark: other sources report otherwise. A general note: Immunoblotting shows a protein as a band on a membrane.

Results are given in words; binding and its absence hold for the method and conditions named. In cells and extracts the contact can be indirect. Some entries that bind do so weakly or less than the wild type.

B1: SMAD2, endogenous, Q15796 1-467 (protein)
chain: MSSILPFTPPVVKRLLGWKKSAGGSGGAGGGEQNGQEEKWCEKAVKSLVKKLKKTGRLDELEKAITTQNCNTKCVTIPSTCSEIWGLSTPNTIDQWDTTGLYSFSEQTRSLDGRLQVSHRKGLPHVIYCRLWRWPDLHSHHELKAIENCEYAFNLKKDEVCVNPYHYQRVETPVLPPVLVPRHTEILTELPPLDDYTHSIPENTNFPAGIEPQSNYIPETPPPGYISEDGETSDQQLNQSMDTGSPAELSPTTLSPVNHSLDLQPVTYSEPAFWCSIAYYELNQRVGETFHASQPSLTVDGFTDPSNSERFCLGLLSNVNRNATVEMTRRHIGRGVRLYYIGGEVFAECLSDSAIFVQSPNCNQRYGWHPATVCKIPPGCNLKIFNNQEFAALLAQSVNQGFEAVYQLTRMCTIRMSFVKGWGAEYRRQTVTSTPCWIELHLNGPLQWLDKVLTQMGSPSVRCSSMS
Take B1: the binding entry is given as “binds”.

B2: SMAD3, endogenous, P84022 1-425 (protein)
chain: MSSILPFTPPIVKRLLGWKKGEQNGQEEKWCEKAVKSLVKKLKKTGQLDELEKAITTQNVNTKCITIPRSLDGRLQVSHRKGLPHVIYCRLWRWPDLHSHHELRAMELCEFAFNMKKDEVCVNPYHYQRVETPVLPPVLVPRHTEIPAEFPPLDDYSHSIPENTNFPAGIEPQSNIPETPPPGYLSEDGETSDHQMNHSMDAGSPNLSPNPMSPAHNNLDLQPVTYCEPAFWCSISYYELNQRVGETFHASQPSMTVDGFTDPSNSERFCLGLLSNVNRNAAVELTRRHIGRGVRLYYIGGEVFAECLSDSAIFVQSPNCNQRYGWHPATVCKIPPGCNLKIFNNQEFAALLAQSVNQGFEAVYQLTRMCTIRMSFVKGWGAEYRRQTVTSTPCWIELHLNGPLQWLDKVLTQMGSPSIRCSSVS
As for B2, the binding entry is recorded as “binds”.
